Among all 1,400 compounds or so, about 10 (0.7%) were called active. Roughly 2% stayed inconclusive and do not appear here. Calls follow the shape of the dose curve; as a rule, active = well fitted inhibition curve with a large enough effect; inconclusive = small, poorly fitted or top-dose-only effect; inactive = flat fitted curve, though single readings scatter. The list shows a part of the results, in another mix than the full data.

Amino acid sequences for entries named in this document (tags omitted).
UniProt P08659, whole entry, looked up: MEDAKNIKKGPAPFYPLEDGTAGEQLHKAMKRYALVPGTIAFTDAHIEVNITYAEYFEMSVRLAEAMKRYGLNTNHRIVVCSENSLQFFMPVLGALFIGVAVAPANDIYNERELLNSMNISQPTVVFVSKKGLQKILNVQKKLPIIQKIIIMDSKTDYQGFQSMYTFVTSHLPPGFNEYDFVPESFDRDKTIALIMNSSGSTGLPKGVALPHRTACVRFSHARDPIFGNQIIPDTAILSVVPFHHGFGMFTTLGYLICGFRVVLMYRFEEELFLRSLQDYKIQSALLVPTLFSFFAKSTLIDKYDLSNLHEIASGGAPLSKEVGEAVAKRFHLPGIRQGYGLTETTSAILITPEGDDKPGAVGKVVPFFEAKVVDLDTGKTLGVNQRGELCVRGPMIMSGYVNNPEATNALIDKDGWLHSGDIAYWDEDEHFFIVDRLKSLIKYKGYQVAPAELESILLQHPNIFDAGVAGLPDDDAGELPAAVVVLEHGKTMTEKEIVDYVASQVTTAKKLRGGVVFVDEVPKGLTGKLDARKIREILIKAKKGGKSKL

Our source for the activity change, negative = inhibition values is PubChem BioAssay AID1347047 (National Center for Advancing Translational Sciences (NCATS), 2019).

The assay has as its target Luciferin 4-monooxygenase (Photinus pyralis) (UniProt P08659). The assay can be described thus: Natriuretic polypeptide receptor (hNpr1) antagonism - Confirmation firefly luciferase (FLuc) inhibition counterscreen. Also: 0% is about no effect. Particulars: purified FLuc enzyme, luminescence, Km substrate; at 57.6 µM (top of the series) unless noted. An excerpt:
Firefly (Photinus pyralis) luciferase (FLuc) is one of the more frequently used transcriptional reporter genes, and it has also been developed as a cellular sensor for cyclic nucleotides. (Fan F & Wood KV, 2007; Fan F et al., 2008) However, a significant number of compounds that populate chemical libraries have been identified as FLuc ligands which can be mistaken for modulators of the intended targeted pathways, receptors or enzymes. (Auld, DS et al. 2008; Thorne, N et al. 2012) Therefore, the FLuc enzyme assay conducted at sensitive Km level substrate conditions is used to counter-screen for potential FLuc ligands. Auld DS, Thorne N, Nguyen DT & Inglese J A specific mechanism for nonspecific activation in reporter-gene assays. ACS Chem Biol. 2008, 3: 463-470. DOI: 10.1021/cb8000793 Fan F, Binkowski BF, Butler BL, Stecha PF, Lewis MK, Wood KV. Novel genetically encoded biosensors using firefly luciferase. ACS Chem Biol. 2008, 3: 346-351. DOI: 10.1021/cb8000414 Fan F and Wood KV. Bioluminescent assays for high-throughput screening. Assay Drug Dev Technol. 2007, 5: 127-136. […] Chemistry & Biology, 2012, 19: 1060-1072. DOI.org/10.1016/j.chembiol.2012.07.015
PROTOCOL TABLE (as described by Inglese J, Shamu CE and Guy RK. 2007) SEQUENCE No. (e.g., 1, 2, 3, etc.); PARAMETER (e.g., Cells, Incubation, Reagent, etc.); VALUE and DESCRIPTION. FLUC KM ENZYME COUNTERSCREEN (Thorne, N.T. et al. 2012) 1. Reagent. Add 3 uL of D-luciferin substrate buffer per well into Greiner 1536-well white/solid bottom high base, medium bind plates. 2. Compounds. Library compounds and PTC124 control added at 23nL per well, transferred by Pin Tool. 3. Incubation. Incubate plates at room temperature for […], protect from light. 4. Reagent. Add 1uL of P. pyralis luciferase (FLuc) per well of Greiner 1536-well plates. 5. Incubation. Incubate plates at room temperature for 10 min., protect from light. 6. Detector. FLuc luminescence measured using CCD-based camera (Viewlux). NOTES (numbers refer to Sequence numbers above) 1. Substrate buffer: 10 uM D-luciferin final concentration in 50 mM Tris-Acetate, pH 7.6, 10 mM Mg-Acetate, 10 uM ATP, 0.01% Tween-20, and 0.05% BSA buffer added at 3uL/well to 13 x Greiner 1536-well white/solid bottom high base, medium bind plates. 2. PTC124 stock solution prepared (10 mM in DMSO; Auld D.S. et al. 2010). Working dilution for dispense = 10 mM stock dilution (57.5 uM final concentration; 16-pt 1:3 titration in duplicate = final concentration range of 57.5 uM - 4 pM). 23nL of library compounds, PTC124 control or DMSO vehicle control transferred to the 13 substrate-containing Greiner white/solid bottom high base, medium bind plates in 11 interplate 1:3 titrations (see Yasgar, A. et al. 2008) with Pintool. 3. Substrate incubated for 30-50 min. at ambient temperature protected from light with metal lid. 4. Enzyme solution: 10 nM P. pyralis luciferase (FLuc) final concentration in 50 mM Tris-Acetate, pH 7.6 added at 1uL to 13 x Greiner 1536-well white/solid bottom high base, medium bind plates. 5. Substrate and enzyme incubated with test library compounds and controls for 10 min. at ambient temperature protected from light with metal lid. 6. Read final Luminescence on the ViewLux. [Exposure = 30 s.; Gain = High; Speed = Slow; and Binning = 2X.] REFERENCES: Auld DS, Lovell S, Thorne N, Lea WA, Maloney DJ, Shen M, Rai G, Battaile KP, Thomas CJ, Simeonov A, Hanzlik RP and Inglese J. Molecular basis for the high-affinity binding and stabilization of firefly luciferase by PTC124. […] Chemistry & Biology, 2012, 19: 1060-1072. doi.org/10.1016/j.chembiol.2012.07.015 Yasgar A, Shinn P, Jadhav A, Auld DS, Michael S, Zheng W, Austin CP, Inglese J and Simeonov A, Compound Management for Quantitative High-Throughput Screening. J. Assoc. Lab. Auto., 2008, 13: 79-89. doi: 10.1016/j.jala.2007.12.004
`COc1cc2c(cc1Oc1cccc(N(C)C)c1)NC(=O)C21CCN(Cc2ccccn2)CC1`: the activity change, negative = inhibition is inactive: -7.03%.

With `COc1cc2c(cc1Oc1cccc(N(C)C)c1)NC(=O)C21CCN(CCC(C)C)CC1`, the activity change, negative = inhibition was inactive: 2.27% [at 86.2 µM].

Regarding `COc1cc2c(cc1OCc1ccncc1)NC(=O)C21CCN(c2ncc(F)cn2)CC1`, the activity change, negative = inhibition is inactive: -0.173% [at 86.2 µM].

As for `COc1cc2c(cc1Oc1cccc(N(C)C)c1)NC(=O)C21CCN(c2cnccn2)CC1`, the activity change, negative = inhibition was inactive: 1.45%.

`CCC(CC)c1cc([C@H]2CN3CC[C@H]2C[C@@H]3CNS(=O)(=O)c2ccccc2C#N)nc(-c2ccncc2)n1`: the activity change, negative = inhibition was inactive: 0.712%.

For `CCC(CC)c1cc([C@H]2CN3CC[C@H]2C[C@@H]3CNC(=O)NCc2ccccc2)nc(-c2ccncc2)n1`, the activity change, negative = inhibition was inactive: 4.17%.

As to `CCC(CC)c1cc([C@H]2CN3CC[C@H]2C[C@@H]3CNS(=O)(=O)Cc2ccccc2)nc(-c2ccncc2)n1`, the activity change, negative = inhibition was inactive: 0.736%.
